# Some of the results follow. These are further read-outs of the screen, such as a control signal, another cell line or another target. No call is given for them. The list favours compounds with an active or inconclusive main result. Potencies come from curve fits of mixed quality, noted in brackets.
# Test: qHTS Assay for Lipid Storage Modulators in Drosophila S3 Cells;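 as to cell number change: cells counted by Cell Tracker Red CMTPX staining in the red channel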
# Conditions: BODIPY lipid droplet fluorescence, 18-24 h; for cell number change: measured here: cell count max response, cells fed with added oleic acid
# Outline: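 Drosophila S3 cells got compounds at several concentrations plus oleic acid (400 uM solution). Laser-scanning cytometry with 488 nm excitation read lipid droplets at 500-530 nm and cells at 575-640 nm. Percent activity was relative to 20 uM Triacsin C.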
# [1] = measured here: lipid fluorescence (Fed channel) AC50, cells fed with added oleic acid
# [2] = measured here: cell number channel AC50, cells fed with added oleic acid
SMILES,cell number change,AC50 [1],AC50 [2]
CCCNC(=O)CC(NS(=O)(=O)c1ccc(OC)cc1)c1ccco1 (stereo not drawn),-0.761%,"3.26 µM [falling, single point]",–
CCN(CC)CCCNC(=O)c1ccccc1C,-14.8%,"0.651 µM [falling, full curve]",–
COC(CNC(=O)CCCn1nnnc1CN1CCOCC1)c1cccs1 (stereo not drawn),15.1%,"0.651 µM [rising, full curve, poor fit]",–
ONC(=Nc1ccccc1Cl)c1ccccc1Cl,-33.6%,"0.146 µM [falling, full curve]","0.184 µM [falling, full curve]"
CCOc1ccc(-c2cc(N3C(=O)Nc4ccccc4N3O)n[nH]2)cc1,-1.32%,"20.6 µM [rising, single point]",–
COc1ccc(C(C)=O)c(Oc2ccc(S(=O)(=O)N3CCOCC3)cn2)c1,-10.7%,"29.1 µM [rising, single point]",–
CCCCCCC(=O)N1CCC(c2nc3c(nnn3Cc3ccccc3Cl)c(=O)[nH]2)CC1,-80%,–,"18.4 µM [falling, partial curve]"
COC(=O)C1=C(C)NC(=O)C1(NS(=O)(=O)c1ccc(NC(C)=O)cc1)C(F)(F)F (stereo not drawn),15.9%,"29.1 µM [rising, single point]",–
COCCNc1cc(C)c(C#N)c2nc3ccccc3n12,39.2%,–,"10.3 µM [rising, single point]"
COc1ccc(CN2CCNC(=O)C2CC(=O)NC2CCOCC2)cc1C (stereo not drawn),4.14%,–,–
CC(=O)c1ccc(N2CCN(C(=O)CCC(=O)c3cccs3)CC2)cc1,–,"6.51 µM [rising, single point]",–
COc1ccc(NC(=O)Cn2c(CCC(=O)O)ccc2-c2ccccc2)cc1,-17.7%,"0.13 µM [falling, full curve, poor fit]",–
O=C(NCCc1ccc(Cl)cc1Cl)c1cncc(Br)c1,-23.1%,–,"0.731 µM [falling, full curve, poor fit]"
COc1ccccc1C1SCCN1S(C)(=O)=O (stereo not drawn),-3.8%,–,–
Fc1cccc(CCN2C(=S)NC[C@@H]2CC2CCCCC2)c1,8.28%,"2.91 µM [rising, partial curve]",–
COc1ccc(S(=O)(=O)N2CCC(C(=O)Oc3c(OC)cccc3OC)CC2)cc1OC,-15.2%,"0.103 µM [falling, full curve, poor fit]",–
Cc1ccc(C)c(N(C)C(=O)COc2cc(=O)n(C)c3ccccc23)c1,-17.2%,–,–
COc1ccccc1CNC(=O)COc1ccc(C)cc1,11.3%,–,–
Cc1nc2ncnn2c(C)c1CCC(=O)N1CCN(Cc2ccccc2)CC1,–,–,"0.731 µM [rising, full curve, poor fit]"
CC1=CCC(/C=N\Nc2nnc3c(n2)[nH]c2ccccc23)CC1 (stereo not drawn),-24.7%,–,–
CCOC(=O)c1c(C)[nH]c(C(=O)C(C)Cl)c1C (stereo not drawn),39.4%,–,"0.92 µM [rising, full curve]"

# In a second layout: 13 of the compounds above
SMILES	cell number change	AC50 [1]	AC50 [2]
CCN(CC)CCCNC(=O)c1ccccc1C	-14.8%	0.651 µM [falling, full curve]	–
ONC(=Nc1ccccc1Cl)c1ccccc1Cl	-33.6%	0.146 µM [falling, full curve]	0.184 µM [falling, full curve]
CCOc1ccc(-c2cc(N3C(=O)Nc4ccccc4N3O)n[nH]2)cc1	-1.32%	20.6 µM [rising, single point]	–
COc1ccc(C(C)=O)c(Oc2ccc(S(=O)(=O)N3CCOCC3)cn2)c1	-10.7%	29.1 µM [rising, single point]	–
CCCCCCC(=O)N1CCC(c2nc3c(nnn3Cc3ccccc3Cl)c(=O)[nH]2)CC1	-80%	–	18.4 µM [falling, partial curve]
COC(=O)C1=C(C)NC(=O)C1(NS(=O)(=O)c1ccc(NC(C)=O)cc1)C(F)(F)F (stereo not drawn)	15.9%	29.1 µM [rising, single point]	–
COCCNc1cc(C)c(C#N)c2nc3ccccc3n12	39.2%	–	10.3 µM [rising, single point]
COc1ccc(CN2CCNC(=O)C2CC(=O)NC2CCOCC2)cc1C (stereo not drawn)	4.14%	–	–
COc1ccccc1C1SCCN1S(C)(=O)=O (stereo not drawn)	-3.8%	–	–
Fc1cccc(CCN2C(=S)NC[C@@H]2CC2CCCCC2)c1	8.28%	2.91 µM [rising, partial curve]	–
Cc1ccc(C)c(N(C)C(=O)COc2cc(=O)n(C)c3ccccc23)c1	-17.2%	–	–
COc1ccccc1CNC(=O)COc1ccc(C)cc1	11.3%	–	–
Cc1nc2ncnn2c(C)c1CCC(=O)N1CCN(Cc2ccccc2)CC1	–	–	0.731 µM [rising, full curve, poor fit]

# Next records follow.

SMILES,cell number change,AC50 [1],AC50 [2]
CSc1nc2ncc(C(=O)O)c(N)n2n1,5.92%,–,"2.31 µM [falling, partial curve, poor fit]"
COc1cc(C(=O)Nc2nnc(C(F)(F)F)s2)c([N+](=O)[O-])cc1OC,-47.4%,"20.6 µM [falling, single point]","1.03 µM [falling, full curve]"
O=[N+]([O-])c1ccc(Cl)cc1N/N=C/c1ccncc1,-0.985%,"0.326 µM [rising, partial curve, poor fit]",–
CCCCN(C)C(=O)C(Cc1ccccc1)NS(=O)(=O)c1ccc2c(c1)CCC(=O)N2 (stereo not drawn),-11.3%,"14.6 µM [falling, partial curve]",–
CC1(C)CC(=O)C2=C(C1)N(c1ccccc1)C(N)=C(C#N)C2c1ccsc1 (stereo not drawn),47.7%,"2.59 µM [rising, full curve]","2.91 µM [rising, full curve]"
O=C(CCC1CCCC1)N1CCN(S(=O)(=O)c2ccc(Br)cc2)CC1,-9.81%,"8.2 µM [rising, partial curve]",–
O=C(Nc1cccc(S(=O)(=O)N2CCOCC2)c1)C(c1ccccc1)N1CCCCC1 (stereo not drawn),29.4%,–,–
Cc1ccc(S(=O)(=O)CCc2nc3ccccc3n2CCC#N)cc1,–,–,"7.31 µM [falling, single point]"
CC(=O)c1ccc([N+](=O)[O-])cc1,9.38%,"23.1 µM [rising, single point]","0.517 µM [rising, partial curve]"
Cc1[nH]c(=O)[nH]c(=O)c1S(=O)(=O)NCCc1ccc(S(N)(=O)=O)cc1,-189%,–,"29.1 µM [falling, single point]"
CCOc1ccc(S(=O)(=O)NCCC(=O)NCC(c2ccccc2OC)N2CCCC2)cc1 (stereo not drawn),–,–,"6.51 µM [rising, single point]"
COc1cc(C(=O)NCCN2CCOCC2)cc(OC)c1OC,-65.2%,–,"29.1 µM [falling, single point]"
CC(C)CN(C(=O)COC(=O)c1ccc(Br)cc1)c1c(N)n(Cc2ccccc2)c(=O)[nH]c1=O,-39.7%,"9.2 µM [falling, partial curve]","9.2 µM [falling, partial curve, poor fit]"
CCOc1ccc2[nH]c(=O)c(CN(Cc3cccs3)Cc3nnnn3C(C)(C)C)cc2c1,-33.4%,"29.1 µM [falling, single point]","18.4 µM [falling, single point]"
O=C(NCc1cccc(F)c1F)C1CCC(=O)N(C2CC2)C1 (stereo not drawn),–,"4.11 µM [rising, single point]",–
Cc1ccc(C)n1NC(=O)c1ccc(Cl)cc1,20.7%,"0.58 µM [falling, single point]",–
Cc1cccc(N2CCN(C(=O)C3CCN(S(=O)(=O)c4cccc5nsnc45)CC3)CC2C)c1 (stereo not drawn),-45.6%,"29.1 µM [rising, single point]","29.1 µM [falling, single point]"
O=C(C1CCCO1)N1CCN(c2ccccn2)CC1 (stereo not drawn),-7.01%,"29.1 µM [falling, single point]",–
c1cncc(-c2nnc(-c3cccnc3)nn2)c1,-12.7%,"1.64 µM [falling, partial curve]",–
CCN(CC)S(=O)(=O)c1ccc(NC(=O)CCN2C(=O)C3CC=CCC3C2=O)cc1 (stereo not drawn),-20.5%,"0.58 µM [rising, full curve]",–
CCCSc1nc2cc(C)c(C)cc2n1CC(O)CO (stereo not drawn),–,"0.146 µM [falling, partial curve]","0.00517 µM [falling, full curve]"

# An excerpt of these results, as tab-separated lines.
SMILES	cell number change	AC50 [1]	AC50 [2]
Cc1[nH]c(=O)[nH]c(=O)c1S(=O)(=O)NCCc1ccc(S(N)(=O)=O)cc1	-189%	–	29.1 µM [falling, single point]
CCOc1ccc(S(=O)(=O)NCCC(=O)NCC(c2ccccc2OC)N2CCCC2)cc1 (stereo not drawn)	–	–	6.51 µM [rising, single point]

# Continuation.

SMILES,cell number change,AC50 [1],AC50 [2]
COc1ccc(-c2nn(-c3ccccc3)cc2C=O)cc1[N+](=O)[O-],21.4%,–,–
COC(=O)c1ccc(CSc2nnc(-c3ccncc3)o2)cc1,-25.5%,–,–
COc1ccc(COc2ccc3ccc(=O)oc3c2)cc1,36.9%,–,"29.1 µM [rising, single point]"
COc1ccc(S(=O)(=O)N2CCCC(C(=O)NCc3ccncc3)C2)cc1 (stereo not drawn),-2.16%,–,–
CCCCn1c(SCC(=O)c2ccccc2)nc2c1c(=O)[nH]c(=O)n2C,44.5%,"23.1 µM [rising, single point]","29.1 µM [rising, single point]"
Cc1cccc(C)c1NC(=O)NC1(C(=O)N2CCCCC2)CCCCC1,3.85%,–,–
Cc1ccc(S(=O)(=O)Nc2ccc(NC(=O)c3c(F)c(F)c(F)c(F)c3F)cc2)cc1,-27.5%,"29.1 µM [falling, single point]",–
COc1cccc(C(=O)NNC(=O)Cc2cccs2)c1,22.8%,"3.66 µM [rising, full curve]",–
CN(C)c1nccc(N(Cc2ccccc2)Cc2ccccc2)c1C#N,40.7%,"0.517 µM [falling, full curve]","5.8 µM [rising, full curve, poor fit]"
Oc1c(N=NC(=S)Nc2ccccc2F)c2ccccc2n1Cc1ccccc1Cl,-10.1%,"16.4 µM [falling, single point]",–
CCOc1cc(C#N)ccc1OCC(=O)N1CCc2ccccc2C1,11.1%,–,–
Cc1ccc(NC(=O)CN2CCN(CCN=CC3=C(O)CC(c4ccccc4)CC3=O)CC2)cc1 (stereo not drawn),13.3%,–,–
CCOc1cc(/C=C(/C#N)C(=O)Nc2ccc(OC)cc2)ccc1OCc1ccc(C(=O)O)cc1,-9.68%,"18.4 µM [falling, single point]",–
CCOc1ccc(CC(=O)OCn2nnc3ccccc3c2=O)cc1,-16.4%,"2.31 µM [falling, partial curve, poor fit]","2.31 µM [falling, partial curve, poor fit]"
Cc1ccc(CC(=S)N2CCOCC2)cc1,-82.1%,"29.1 µM [falling, single point]","29.1 µM [falling, single point]"
Cc1sc(NC(=O)C2=COCCO2)c(C(N)=O)c1C,37.4%,"20.6 µM [rising, partial curve]","14.6 µM [rising, partial curve, poor fit]"
O=C(CCNC(=O)c1ccco1)Nc1cccc(Br)c1,23.1%,–,–
O=C(NC1CCCc2ccccc21)c1cc(F)cc(F)c1 (stereo not drawn),18.1%,–,–
Cn1c(=O)c2c(ncn2CC(=O)Nc2ccc(N3CCOCC3)cc2)n(C)c1=O,2.09%,"1.64 µM [falling, single point]",–
CCN1CCN(C(=O)c2ccc3c(c2)N(Cc2ccccc2F)C(=O)c2ccccc2S3(=O)=O)CC1,–,"0.00411 µM [rising, full curve, poor fit]",–
COc1cc(NC(=O)C2CC(c3ccccc3Cl)=NO2)cc(OC)c1OC (stereo not drawn),-40.4%,–,"0.0411 µM [falling, full curve, poor fit]"
